Laboratory results taken from patent US5698529A, “Chemotherapeutic compositions” (Supratek Pharma, Inc., priority 1996, dated 1997).
≈ marks a conversion by molar mass, not a printed value.

Tested on: SKVO3 cells
Assay: cells
Format: cell-based
Details: Homo sapiens
From the text: The antineoplastic agent vinblastine is incorporated into the block copolymer mixture described in Example 3.
The antineoplastic agent mitomycin C is incorporated into the block copolymer mixture described in Example 3.
The antineoplastic agent methotrexate is incorporated into the block copolymer mixture described in Example 3.
The antineoplastic agent daunorubicin is incorporated into the block copolymer mixture described in Example 3.

COc1cc2c(c(OC)c1OC)-c1ccc(OC)c(=O)cc1[C@@H](NC(C)=O)CC2 [free colchicine, colchicine] showed an IC50 of 0.95 µg/mL (≈ 2.38 µM).
